No constants are given. Whether binding was seen depends on the method and setting. Some results given as binding are weak or reduced against the parent protein; the word gives no strength.
Biological target: T1, Human pulmonary surfactant protein-D (human), P35247
T1 chain: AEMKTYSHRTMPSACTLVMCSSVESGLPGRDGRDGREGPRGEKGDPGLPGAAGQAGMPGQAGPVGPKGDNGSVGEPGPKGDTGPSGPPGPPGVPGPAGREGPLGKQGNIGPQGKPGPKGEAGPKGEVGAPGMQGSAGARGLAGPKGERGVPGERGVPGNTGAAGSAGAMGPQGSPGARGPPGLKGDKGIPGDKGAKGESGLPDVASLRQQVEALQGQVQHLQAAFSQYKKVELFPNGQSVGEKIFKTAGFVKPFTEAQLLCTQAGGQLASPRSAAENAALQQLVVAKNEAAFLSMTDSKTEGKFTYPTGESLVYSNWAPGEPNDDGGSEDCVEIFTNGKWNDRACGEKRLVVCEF
Assay: atomic force microscopy; purified hSP-D imaged by AFM (Supplementary Fig. 1); conditions not given; both purified
Conditions: remark: other sources report otherwise

- binding: binds
B1: Human pulmonary surfactant protein-D, P35247 21-375 (protein)
chain: AEMKTYSHRTMPSACTLVMCSSVESGLPGRDGRDGREGPRGEKGDPGLPGAAGQAGMPGQAGPVGPKGDNGSVGEPGPKGDTGPSGPPGPPGVPGPAGREGPLGKQGNIGPQGKPGPKGEAGPKGEVGAPGMQGSAGARGLAGPKGERGVPGERGVPGNTGAAGSAGAMGPQGSPGARGPPGLKGDKGIPGDKGAKGESGLPDVASLRQQVEALQGQVQHLQAAFSQYKKVELFPNGQSVGEKIFKTAGFVKPFTEAQLLCTQAGGQLASPRSAAENAALQQLVVAKNEAAFLSMTDSKTEGKFTYPTGESLVYSNWAPGEPNDDGGSEDCVEIFTNGKWNDRACGEKRLVVCEF
